Source: publication PMC5562708
Results are given in words; binding and its absence hold for the method and conditions named. Binding seen in cells or lysates may run through a third protein. Some results given as binding are weak or reduced against the parent protein; the word gives no strength. For some of these results: Tags and fused reporters may be left off the sequences shown.

The chains behind the UniProt entries cited, without tags or fusion partners. Residues count along the entry.
UniProt Q13873, residues 27-1038: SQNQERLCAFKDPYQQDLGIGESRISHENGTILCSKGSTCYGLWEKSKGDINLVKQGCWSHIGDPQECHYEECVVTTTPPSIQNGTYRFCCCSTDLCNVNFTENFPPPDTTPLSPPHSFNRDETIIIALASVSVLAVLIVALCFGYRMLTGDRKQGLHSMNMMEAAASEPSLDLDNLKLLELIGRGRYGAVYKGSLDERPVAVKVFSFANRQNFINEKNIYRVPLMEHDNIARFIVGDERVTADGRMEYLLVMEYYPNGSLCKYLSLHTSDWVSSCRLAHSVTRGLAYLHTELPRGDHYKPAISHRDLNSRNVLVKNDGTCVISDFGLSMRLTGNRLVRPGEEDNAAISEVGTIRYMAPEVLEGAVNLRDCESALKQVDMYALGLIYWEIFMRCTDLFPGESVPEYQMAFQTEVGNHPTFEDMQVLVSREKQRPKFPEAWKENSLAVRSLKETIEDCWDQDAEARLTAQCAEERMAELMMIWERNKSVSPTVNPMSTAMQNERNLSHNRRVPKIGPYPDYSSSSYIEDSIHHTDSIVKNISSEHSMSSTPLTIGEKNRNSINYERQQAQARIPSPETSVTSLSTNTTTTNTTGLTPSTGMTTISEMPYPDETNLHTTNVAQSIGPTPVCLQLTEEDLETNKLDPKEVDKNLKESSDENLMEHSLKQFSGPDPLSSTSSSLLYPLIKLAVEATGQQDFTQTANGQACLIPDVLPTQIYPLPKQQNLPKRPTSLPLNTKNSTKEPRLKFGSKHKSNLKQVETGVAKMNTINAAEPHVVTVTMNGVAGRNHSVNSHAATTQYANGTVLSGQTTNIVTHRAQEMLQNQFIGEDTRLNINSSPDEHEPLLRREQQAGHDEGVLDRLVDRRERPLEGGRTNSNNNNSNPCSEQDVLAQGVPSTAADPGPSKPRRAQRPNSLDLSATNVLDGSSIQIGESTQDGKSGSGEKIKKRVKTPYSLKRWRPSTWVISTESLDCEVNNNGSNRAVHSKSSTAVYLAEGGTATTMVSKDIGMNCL
UniProt Q15797: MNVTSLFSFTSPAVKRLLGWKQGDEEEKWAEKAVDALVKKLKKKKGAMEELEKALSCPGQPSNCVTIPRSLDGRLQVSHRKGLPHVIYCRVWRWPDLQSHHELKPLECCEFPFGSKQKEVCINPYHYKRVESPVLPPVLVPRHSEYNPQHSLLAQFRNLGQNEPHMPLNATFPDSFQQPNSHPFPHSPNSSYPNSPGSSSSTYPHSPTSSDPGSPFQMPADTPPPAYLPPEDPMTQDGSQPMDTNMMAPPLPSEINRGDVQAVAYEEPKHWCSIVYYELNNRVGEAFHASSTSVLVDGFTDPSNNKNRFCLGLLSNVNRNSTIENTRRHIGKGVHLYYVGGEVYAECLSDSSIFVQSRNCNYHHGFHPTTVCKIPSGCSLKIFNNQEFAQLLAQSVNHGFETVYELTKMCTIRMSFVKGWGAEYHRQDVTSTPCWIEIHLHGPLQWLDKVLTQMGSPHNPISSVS
UniProt P35569: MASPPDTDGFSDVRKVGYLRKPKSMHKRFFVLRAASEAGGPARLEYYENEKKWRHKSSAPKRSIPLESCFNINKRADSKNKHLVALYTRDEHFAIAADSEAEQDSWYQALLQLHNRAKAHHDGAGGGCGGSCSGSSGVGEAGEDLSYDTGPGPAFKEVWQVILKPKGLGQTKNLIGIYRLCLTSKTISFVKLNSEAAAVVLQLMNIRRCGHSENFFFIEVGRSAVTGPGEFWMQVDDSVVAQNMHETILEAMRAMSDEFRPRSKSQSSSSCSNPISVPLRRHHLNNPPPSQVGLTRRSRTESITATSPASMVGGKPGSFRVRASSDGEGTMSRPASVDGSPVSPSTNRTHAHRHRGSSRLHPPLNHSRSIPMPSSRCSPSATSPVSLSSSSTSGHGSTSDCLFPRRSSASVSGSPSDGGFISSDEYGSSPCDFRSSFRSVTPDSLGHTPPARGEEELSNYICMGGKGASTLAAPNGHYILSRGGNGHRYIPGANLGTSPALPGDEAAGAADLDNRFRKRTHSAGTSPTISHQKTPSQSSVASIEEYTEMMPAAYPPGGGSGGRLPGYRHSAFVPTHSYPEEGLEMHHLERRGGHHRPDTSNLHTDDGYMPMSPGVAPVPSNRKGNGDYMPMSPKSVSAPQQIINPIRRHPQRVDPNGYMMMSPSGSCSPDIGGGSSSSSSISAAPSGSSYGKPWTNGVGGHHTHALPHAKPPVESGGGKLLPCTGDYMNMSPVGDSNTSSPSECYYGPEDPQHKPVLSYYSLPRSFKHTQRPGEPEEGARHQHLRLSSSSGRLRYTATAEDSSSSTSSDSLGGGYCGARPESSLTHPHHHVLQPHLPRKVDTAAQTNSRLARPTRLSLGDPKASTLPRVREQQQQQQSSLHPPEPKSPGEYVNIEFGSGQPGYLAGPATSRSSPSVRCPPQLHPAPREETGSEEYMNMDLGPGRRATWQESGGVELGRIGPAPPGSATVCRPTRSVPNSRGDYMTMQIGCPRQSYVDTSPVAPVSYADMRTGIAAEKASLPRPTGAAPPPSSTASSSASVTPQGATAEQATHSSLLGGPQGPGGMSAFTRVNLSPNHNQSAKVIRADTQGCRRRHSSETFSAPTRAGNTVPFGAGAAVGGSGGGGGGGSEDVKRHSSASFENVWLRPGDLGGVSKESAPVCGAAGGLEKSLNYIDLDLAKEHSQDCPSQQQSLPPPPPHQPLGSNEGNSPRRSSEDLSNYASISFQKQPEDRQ

Tests used:
[1] = target: T1, myc-tagged IRS4 (IRS4-myc), wild type (mouse) (UniProt Q9Z0Y7); test: co-IP; transfected HEK293T cells, lysed directly or starved 6 h and stimulated with 10 nM BMP2; RIPA or TNE buffer; IP with anti-myc (9E10) or anti-IRS4 antibody overnight, protein A sepharose; Western blot
T1 sequence: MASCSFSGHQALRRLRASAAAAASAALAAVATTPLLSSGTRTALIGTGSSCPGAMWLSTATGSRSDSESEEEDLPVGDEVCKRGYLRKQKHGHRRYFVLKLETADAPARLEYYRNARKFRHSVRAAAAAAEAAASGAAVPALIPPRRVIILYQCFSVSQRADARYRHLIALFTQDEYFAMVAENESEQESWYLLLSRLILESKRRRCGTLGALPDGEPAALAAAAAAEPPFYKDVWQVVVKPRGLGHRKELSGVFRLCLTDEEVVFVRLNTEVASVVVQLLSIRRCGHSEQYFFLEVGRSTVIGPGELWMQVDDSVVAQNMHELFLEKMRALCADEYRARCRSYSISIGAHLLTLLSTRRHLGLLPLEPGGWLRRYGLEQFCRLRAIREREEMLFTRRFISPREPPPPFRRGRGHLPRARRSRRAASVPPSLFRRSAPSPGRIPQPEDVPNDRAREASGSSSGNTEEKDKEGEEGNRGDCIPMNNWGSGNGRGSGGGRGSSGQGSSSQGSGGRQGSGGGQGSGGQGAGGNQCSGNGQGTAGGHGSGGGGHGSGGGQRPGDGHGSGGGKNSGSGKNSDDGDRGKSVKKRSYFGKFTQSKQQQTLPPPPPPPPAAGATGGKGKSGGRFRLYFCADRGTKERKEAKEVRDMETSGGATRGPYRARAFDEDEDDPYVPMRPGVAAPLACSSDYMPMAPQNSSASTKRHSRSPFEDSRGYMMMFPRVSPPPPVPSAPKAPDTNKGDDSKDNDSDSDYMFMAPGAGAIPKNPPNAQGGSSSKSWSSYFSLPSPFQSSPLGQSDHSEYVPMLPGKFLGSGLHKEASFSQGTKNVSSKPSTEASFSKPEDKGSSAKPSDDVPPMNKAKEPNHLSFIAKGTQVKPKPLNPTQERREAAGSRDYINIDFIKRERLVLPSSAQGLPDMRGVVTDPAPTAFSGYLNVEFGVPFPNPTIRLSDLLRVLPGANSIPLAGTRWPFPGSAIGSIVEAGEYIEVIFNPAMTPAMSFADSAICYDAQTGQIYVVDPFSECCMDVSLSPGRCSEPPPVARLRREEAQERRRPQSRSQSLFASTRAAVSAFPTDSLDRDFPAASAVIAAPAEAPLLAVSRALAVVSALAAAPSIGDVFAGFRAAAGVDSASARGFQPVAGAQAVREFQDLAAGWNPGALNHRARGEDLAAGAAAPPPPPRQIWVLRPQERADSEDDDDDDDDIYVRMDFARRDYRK

[2] = target: T2, endogenous IRS4 (immortalised human myoblasts) (human (endogenous in immortalised human myoblasts)) (UniProt O14654); test: co-IP; endogenous proteins; immortalised human myoblasts lysed 48 h post-seeding; IP with anti-IRS4 antibody, protein A sepharose; Western blot
T2 sequence: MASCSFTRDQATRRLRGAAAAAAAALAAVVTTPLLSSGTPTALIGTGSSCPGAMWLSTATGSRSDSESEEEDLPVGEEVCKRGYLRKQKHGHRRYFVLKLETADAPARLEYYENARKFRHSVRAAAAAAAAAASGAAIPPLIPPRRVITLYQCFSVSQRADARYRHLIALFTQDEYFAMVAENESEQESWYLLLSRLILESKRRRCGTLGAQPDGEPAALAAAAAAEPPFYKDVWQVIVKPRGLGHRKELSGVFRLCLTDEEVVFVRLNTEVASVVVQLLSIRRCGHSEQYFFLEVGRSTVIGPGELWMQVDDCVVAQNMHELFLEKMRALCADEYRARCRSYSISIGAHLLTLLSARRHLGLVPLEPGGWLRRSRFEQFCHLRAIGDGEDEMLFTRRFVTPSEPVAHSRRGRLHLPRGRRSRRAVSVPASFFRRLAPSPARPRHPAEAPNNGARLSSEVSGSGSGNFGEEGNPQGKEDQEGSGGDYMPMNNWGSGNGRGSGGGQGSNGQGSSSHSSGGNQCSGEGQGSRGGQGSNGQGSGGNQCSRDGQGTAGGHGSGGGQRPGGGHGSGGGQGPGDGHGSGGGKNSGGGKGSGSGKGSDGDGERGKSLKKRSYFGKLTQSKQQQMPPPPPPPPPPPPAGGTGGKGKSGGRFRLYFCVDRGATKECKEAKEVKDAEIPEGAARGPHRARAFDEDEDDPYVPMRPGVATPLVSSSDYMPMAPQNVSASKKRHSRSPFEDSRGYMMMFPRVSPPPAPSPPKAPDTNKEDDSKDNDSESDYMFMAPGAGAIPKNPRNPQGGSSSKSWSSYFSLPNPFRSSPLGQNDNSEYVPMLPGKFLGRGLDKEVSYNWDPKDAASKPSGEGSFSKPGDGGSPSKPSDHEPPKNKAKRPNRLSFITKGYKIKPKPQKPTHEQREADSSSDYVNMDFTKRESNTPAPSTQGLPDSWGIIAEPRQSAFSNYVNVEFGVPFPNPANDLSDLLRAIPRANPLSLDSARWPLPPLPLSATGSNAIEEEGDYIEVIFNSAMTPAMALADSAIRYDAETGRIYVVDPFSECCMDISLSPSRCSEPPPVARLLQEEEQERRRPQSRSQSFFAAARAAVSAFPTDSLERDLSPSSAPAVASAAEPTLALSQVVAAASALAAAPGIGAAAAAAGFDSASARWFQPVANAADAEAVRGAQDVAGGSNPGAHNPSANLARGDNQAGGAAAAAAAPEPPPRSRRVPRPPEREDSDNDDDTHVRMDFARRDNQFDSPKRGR

[3] = target: T2, endogenous IRS4 (immortalised human myoblasts) (human (endogenous in immortalised human myoblasts)); test: proximity ligation; Duolink in situ PLA in intact immortalised human myoblasts, endogenous proteins; antibodies to BMPRII, IRS4 (EP907Y), Smad1
[4] = target: HA-tagged BMPRII long form (HA-BMPRII-LF) (human) (UniProt Q13873); test: pull-down; surface biotinylation of transfected HEK293T cells (Sulfo-NHS-SS-Biotin), lysis in RIPA buffer2, pull-down of biotinylated surface proteins with streptavidin sepharose overnight; Western blot

Molecule	binding [1]	binding [2]	binding [3]	binding [4]
FLAG-tagged Smad1 (FLAG-Smad1) (from UniProt Q15797 1-465)	binds	–	–	–
endogenous Smad1 (immortalised human myoblasts) (from UniProt Q15797 1-465)	–	binds	binds	–
endogenous BMPRII (immortalised human myoblasts) (from UniProt Q13873 27-1038) (receptor)	–	binds	binds	–
IRS1-myc (from UniProt P35569 1-1233)	–	–	–	no binding
myc-tagged IRS4 (IRS4-myc), wild type (protein, UniProt Q9Z0Y7 1-1216) MASCSFSGHQALRRLRASAAAAASAALAAVATTPLLSSGTRTALIGTGSSCPGAMWLSTATGSRSDSESEEEDLPVGDEVCKRGYLRKQKHGHRRYFVLKLETADAPARLEYYRNARKFRHSVRAAAAAAEAAASGAAVPALIPPRRVIILYQCFSVSQRADARYRHLIALFTQDEYFAMVAENESEQESWYLLLSRLILESKRRRCGTLGALPDGEPAALAAAAAAEPPFYKDVWQVVVKPRGLGHRKELSGVFRLCLTDEEVVFVRLNTEVASVVVQLLSIRRCGHSEQYFFLEVGRSTVIGPGELWMQVDDSVVAQNMHELFLEKMRALCADEYRARCRSYSISIGAHLLTLLSTRRHLGLLPLEPGGWLRRYGLEQFCRLRAIREREEMLFTRRFISPREPPPPFRRGRGHLPRARRSRRAASVPPSLFRRSAPSPGRIPQPEDVPNDRAREASGSSSGNTEEKDKEGEEGNRGDCIPMNNWGSGNGRGSGGGRGSSGQGSSSQGSGGRQGSGGGQGSGGQGAGGNQCSGNGQGTAGGHGSGGGGHGSGGGQRPGDGHGSGGGKNSGSGKNSDDGDRGKSVKKRSYFGKFTQSKQQQTLPPPPPPPPAAGATGGKGKSGGRFRLYFCADRGTKERKEAKEVRDMETSGGATRGPYRARAFDEDEDDPYVPMRPGVAAPLACSSDYMPMAPQNSSASTKRHSRSPFEDSRGYMMMFPRVSPPPPVPSAPKAPDTNKGDDSKDNDSDSDYMFMAPGAGAIPKNPPNAQGGSSSKSWSSYFSLPSPFQSSPLGQSDHSEYVPMLPGKFLGSGLHKEASFSQGTKNVSSKPSTEASFSKPEDKGSSAKPSDDVPPMNKAKEPNHLSFIAKGTQVKPKPLNPTQERREAAGSRDYINIDFIKRERLVLPSSAQGLPDMRGVVTDPAPTAFSGYLNVEFGVPFPNPTIRLSDLLRVLPGANSIPLAGTRWPFPGSAIGSIVEAGEYIEVIFNPAMTPAMSFADSAICYDAQTGQIYVVDPFSECCMDVSLSPGRCSEPPPVARLRREEAQERRRPQSRSQSLFASTRAAVSAFPTDSLDRDFPAASAVIAAPAEAPLLAVSRALAVVSALAAAPSIGDVFAGFRAAAGVDSASARGFQPVAGAQAVREFQDLAAGWNPGALNHRARGEDLAAGAAAPPPPPRQIWVLRPQERADSEDDDDDDDDIYVRMDFARRDYRK	–	–	–	binds
